44 sequences from the supplement of paper PMC7877785 can be followed below.

± gives the uncertainty stated by the source. Many of these values have a large error.

The nature of this series: self-splicing fitness, log relative to wild type (ln ratio); higher = more splicing; Tetrahymena group I intron in knt gene, E. coli kanamycin selection, DiMSum; sequences stand for … in CUCUCU…GGAGGGAAAAGUUAUCAGGCAUGCACCUGGUAGCUAGUCUUUAAACCAAUAGAUUGCAUCGGUUUAAAAGGCAAGACCGUCAAAUUGCGGGAAAGGGGUCAACAGCCGUUCAGUACCAAGUCUCAGGGGAAACUUUGAGAUGGCCUUGCAAAGGGUAUGGUAAUAAGCUGACGGACAUGGUCCUAACCACGCAGCCAAGUCCUAAGUCAACAGAUCUUCUGUUGAUAUGGAUGCAGUUCACAGACUAAAUGUCGGUCGGGGAAGAUGUAUUCUUCUCAUAAGAUAUAGUCGGACCUCUCCUUAAUGGGAGCUAGCGGAUGAAGUGAUGCAACACUGGAGCCGCUGGGAACUAAUUUGUAUGCGAAAGUAUAUUGAUUAGUUUUGGAGUACUCGUGGUCG
The essentials:
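The eight P1ex-region nucleotides of an intron in the knt kanamycin-resistance gene on pET-22b(+) were all randomised and the library put into E. coli BL21(DE3). Six replicate transformations were grown overnight at 37°C or 30°C on LB agar with or without 25 μg/mL kanamycin, together with 100 μg/mL carbenicillin, 50 μM IPTG and 0.2% rhamnose. Colonies were pooled and amplicon-sequenced on an Illumina HiSeq 2500. Fitness from DiMSum is the error-weighted combination of wild-type-normalised replicate fold changes, kanamycin over none.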

In the case of CUUGAGCAAUAUUACGGAAA, the “self-splicing fitness (ln)” value is, setting by setting: (30 °C) -1.37 ± 0.6; (37 °C) -2.99 ± 0.6.
Consider AGAGAGCAAUAUUACGAUAA, for which, under “30 °C”, the “self-splicing fitness (ln)” value was -2.53 ± 0.77.
For the sequence CAUGAGCAAUAUUACGUCAC, the “self-splicing fitness (ln)” value (37 °C) is -3.55 ± 0.52.
Consider UGGAAGCAAUAUUACGUUAC, for which the “self-splicing fitness (ln)” value was -3.16 ± 1 (30 °C) and -2.73 ± 0.62 (37 °C).
The like results for ACGGAGCAAUAUUACGGCUG were, in that order, -2.87 ± 0.12 and -1.26 ± 0.13.
As for GUAGAGCAAUAUUACGGCAG, the “self-splicing fitness (ln)” value (30 °C) is -2.86 ± 0.62 and the “self-splicing fitness (ln)” value (37 °C) is -1.98 ± 0.57.
Consider GUCUAGCAAUAUUACGAAAG, for which the “self-splicing fitness (ln)” value (30 °C) was -4.11 ± 0.6.
Regarding UGCGAGCAAUAUUACGGCCG, where the note is “37 °C”, the “self-splicing fitness (ln)” value was -1.65 ± 0.58.
AUGCAGCAAUAUUACGCCUG: the “self-splicing fitness (ln)” value (37 °C) was -1.88 ± 0.67.
On to UGAGAGCAAUAUUACGCAAU, for which the “self-splicing fitness (ln)” value (30 °C) was -3.28 ± 0.57.
Regarding CCGGAGCAAUAUUACGCCGC, the “self-splicing fitness (ln)” value runs as follows: (30 °C) -0.828 ± 1; (37 °C) -0.531 ± 0.5.
In the same order, the values of AUCGAGCAAUAUUACGCAGU are -2.07 ± 0.23 and -1.85 ± 0.33.
As to GAUAAGCAAUAUUACGCGAU, the “self-splicing fitness (ln)” value (30 °C) is -5.18 ± 1.
Regarding GUGGAGCAAUAUUACGCCCC, the “self-splicing fitness (ln)” value is, setting by setting: (30 °C) -1.52 ± 1.2; (37 °C) -1.17 ± 0.57.
For GCCAAGCAAUAUUACGCCAC, the “self-splicing fitness (ln)” value (30 °C) is -3.98 ± 0.73.
In the case of CUCUAGCAAUAUUACGCUGC, the “self-splicing fitness (ln)” value runs as follows: (30 °C) -3.58 ± 0.44; (37 °C) -2.98 ± 0.53.
Turning to GCGAAGCAAUAUUACGCAAG, the “self-splicing fitness (ln)” value (37 °C) was -2.73 ± 0.54.
On to UCAAAGCAAUAUUACGGUUG, for which the “self-splicing fitness (ln)” value (30 °C) is -1.38 ± 0.086 and the “self-splicing fitness (ln)” value (37 °C) was -0.732 ± 0.12.
The like results for CCGCAGCAAUAUUACGGGAU were, in that order, -4.16 ± 0.33 and -1.82 ± 0.16.
Take CAUUAGCAAUAUUACGCUUC: the “self-splicing fitness (ln)” value (37 °C) is -2.67 ± 0.74.
With AUUGAGCAAUAUUACGUCGU, the “self-splicing fitness (ln)” value was -1.59 ± 0.15 (30 °C) and -1.69 ± 0.17 (37 °C).
For UCCUAGCAAUAUUACGCCUA, the “self-splicing fitness (ln)” value (37 °C) is -2.68 ± 0.62.
For the sequence UUGGAGCAAUAUUACGAGAG, the “self-splicing fitness (ln)” value by setting is: (30 °C) -5.14 ± 1; (37 °C) -1.83 ± 0.54.
Turning to UCCCAGCAAUAUUACGUACC, the “self-splicing fitness (ln)” value (30 °C) was -4.56 ± 0.51.
As for GCUCAGCAAUAUUACGUGCC, the “self-splicing fitness (ln)” value (30 °C) is -5.04 ± 0.71.
As for UUUAAGCAAUAUUACGGUAG, the “self-splicing fitness (ln)” value reads like this: (30 °C) -0.741 ± 0.17; (37 °C) -0.971 ± 0.21.
With CUUCAGCAAUAUUACGGGCC, the “self-splicing fitness (ln)” value (37 °C) was -1.29 ± 0.61.
The same measure, in the same setting: the figure for CGGGAGCAAUAUUACGCCCG is -0.722 ± 0.54.
In the case of GUACAGCAAUAUUACGCCAC, the “self-splicing fitness (ln)” value (37 °C) is -1.73 ± 0.64.
Turning to UUUUAGCAAUAUUACGUACA, the “self-splicing fitness (ln)” value (30 °C) is -2.16 ± 0.15 and the “self-splicing fitness (ln)” value (37 °C) is -0.143 ± 0.2.
In the same order, the values of GACGAGCAAUAUUACGAGCU are -3.27 ± 0.31 and -1.83 ± 0.52.
Regarding GGAGAGCAAUAUUACGUUGC, the “self-splicing fitness (ln)” value (37 °C) was -1.62 ± 1.1.
As to GCUGAGCAAUAUUACGCCCU, the “self-splicing fitness (ln)” value reads like this: (30 °C) -1.4 ± 0.52; (37 °C) -1.37 ± 1.2.
The like results for GGAAAGCAAUAUUACGGCUC were, in that order, -0.254 ± 0.13 and 0.018 ± 0.16.
On to GAUAAGCAAUAUUACGCAAC, for which the “self-splicing fitness (ln)” value (30 °C) is -3.58 ± 0.53.
For the sequence CCACAGCAAUAUUACGGAAU, the “self-splicing fitness (ln)” value reads like this: (30 °C) -3.23 ± 0.17; (37 °C) -2.21 ± 0.18.
CGUUAGCAAUAUUACGAAUU: the “self-splicing fitness (ln)” value (30 °C) was -3.23 ± 1.
Consider ACAGAGCAAUAUUACGAAGA, for which the “self-splicing fitness (ln)” value (30 °C) was -3.48 ± 0.53 and the “self-splicing fitness (ln)” value (37 °C) is -0.891 ± 0.84.
In the same order, the values of UGCCAGCAAUAUUACGAGUG are -1.32 ± 0.064 and -0.537 ± 0.079.
The like results for UGCCAGCAAUAUUACGAGGU were, in that order, -3.06 ± 0.13 and -3.99 ± 0.3.
The like results for UGCGAGCAAUAUUACGCAUC were, in that order, -3.46 ± 1.1 and -2.44 ± 0.54.
For ACAUAGCAAUAUUACGGAAG, the “self-splicing fitness (ln)” value is, setting by setting: (30 °C) -3.57 ± 0.15; (37 °C) -3.04 ± 0.22.
Consider UUGGAGCAAUAUUACGUGCU, for which, where the note is “30 °C”, the “self-splicing fitness (ln)” value was -4.16 ± 0.51.
As to AGAUAGCAAUAUUACGCAUG, the “self-splicing fitness (ln)” value was -1.58 ± 0.14 (30 °C) and -0.884 ± 0.14 (37 °C).
